Among the data in paper PMC7862700 are binding signal values, retold here.

This is a selection; strong and weak results do not stand in their true shares. For part of these data: At the low end of the ranking the order means little. The list shows a part of the results. For part of these data: The source does not settle which construct or isoform was used.

The target of one experiment is T1, GABPA (UniProt Q06546).
T1 sequence: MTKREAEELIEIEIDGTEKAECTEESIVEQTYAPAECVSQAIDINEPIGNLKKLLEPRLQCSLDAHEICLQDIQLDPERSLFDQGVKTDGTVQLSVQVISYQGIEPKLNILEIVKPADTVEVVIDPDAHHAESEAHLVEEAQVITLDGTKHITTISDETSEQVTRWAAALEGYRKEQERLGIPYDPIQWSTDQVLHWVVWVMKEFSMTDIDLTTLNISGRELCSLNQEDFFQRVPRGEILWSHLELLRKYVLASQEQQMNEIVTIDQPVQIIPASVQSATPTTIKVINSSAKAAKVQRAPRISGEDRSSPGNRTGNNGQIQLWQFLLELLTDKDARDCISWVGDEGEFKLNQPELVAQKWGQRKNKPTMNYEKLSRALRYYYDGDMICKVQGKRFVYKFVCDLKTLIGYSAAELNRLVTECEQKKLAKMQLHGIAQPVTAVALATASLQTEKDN
The experiment can be described thus: DAPPL (digital affinity profiling via proximity ligation, sequencing). Conditions: 10 mM Tris-HCl pH 7.5, 50 mM NaCl, 1 mM DTT, 4% glycerol, room temperature, 30 min; GST-TFs on glutathione beads, 16-mer random dsDNA library, 0.1% …; high values mean tight binding; double strand, one strand shown; scale: fold enrichment (6-mer frequency, TF over GST control).
For the sequence TACCGT, the binding signal was found to be 0.654.
Still for that read-out and setting: as for TCGGTT, the figure is 0.868; as for CCTGTC, 0.905.
On to CAGTAG, for which the binding signal is 0.627.
Same read-out and setting: the figure for GGGCCC is 0.937; for GCAGGC it is 0.724.
The same measure, in the same setting: as for GGCAAC, the figure is 0.945.
On the same count and under the same terms, as for AGCACC, the figure is 0.964; as for CATGTC, 0.865.
TCAGCG showed a binding signal of 0.806.
On the same count and under the same terms, the figure for CTGGAG is 0.681.
On the same count and under the same terms, the figure for CGGCGG is 0.592.
With AGCAGT, the binding signal came to 0.694.
Take GACTGT: the binding signal was found to be 0.412.
Still for that read-out and setting: as for GGAAAG, the figure is 0.918; as for AGTCAA, 0.612; as for CAGCCA, 0.832.
The sequence GACAAT had a binding signal of 0.99.
On to CGGGTG, for which the binding signal is 0.608.
On the same count and under the same terms, as for GAGCCC, the figure is 0.811.
On the same count and under the same terms, the figure for CGTGGT is 0.511; for GTAAAG it is 0.908.
On the same count and under the same terms, as for GTTAGA, the figure is 0.751; as for GGGAAT, 0.77.
CGAGGA: the binding signal was 0.659.
The same measure, in the same setting: as for CGGCGT, the figure is 0.824; as for GGAGCA, 0.492; as for CAGCAA, 0.987.
The same measure, in the same setting: as for AGCGGG, the figure is 0.416.
The same measure, in the same setting: as for TGAGTC, the figure is 0.202.
Take CAAGGG: the binding signal worked out at 0.899.
The same measure, in the same setting: as for GGTAGC, the figure is 0.868.
The same measure, in the same setting: as for TGAGCG, the figure is 0.618; as for CAAAGG, 0.907; as for CGAGAC, 0.559.
On the same count and under the same terms, the figure for GGGGAC is 0.489.
On to ATGTGA, for which the binding signal turned out to be 0.695.
For the sequence GCGTGA, the binding signal was 0.245.
Same read-out and setting: the figure for CGGGAC is 0.567.

The next experiment has as its target T2, ETS1 (UniProt P14921).
T2 sequence: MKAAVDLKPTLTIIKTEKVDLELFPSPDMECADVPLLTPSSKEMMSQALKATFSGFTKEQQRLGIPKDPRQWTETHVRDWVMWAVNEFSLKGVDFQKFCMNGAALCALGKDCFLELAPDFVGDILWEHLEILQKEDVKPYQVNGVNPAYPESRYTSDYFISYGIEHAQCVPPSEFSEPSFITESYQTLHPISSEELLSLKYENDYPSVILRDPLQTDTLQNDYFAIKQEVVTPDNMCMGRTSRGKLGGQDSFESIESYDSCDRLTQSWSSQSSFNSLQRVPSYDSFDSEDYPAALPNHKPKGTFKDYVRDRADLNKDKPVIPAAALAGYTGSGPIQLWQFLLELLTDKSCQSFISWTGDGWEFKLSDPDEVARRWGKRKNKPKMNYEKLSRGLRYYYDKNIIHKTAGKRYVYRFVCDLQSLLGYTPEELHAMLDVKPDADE
Described as above. Conditions: 10 mM Tris-HCl pH 7.5, 50 mM NaCl, 1 mM DTT, 4% glycerol, room temperature, 30 min; GST-TFs on glutathione beads, 16-mer random dsDNA library, 0.1% …; high values mean tight binding; double strand, one strand shown; scale: fold enrichment (6-mer frequency, TF over GST control).
Consider TACCGT, for which the binding signal is 0.637.
Same read-out and setting: as for TCGGTT, the figure is 0.836; as for CCTGTC, 0.98; as for CAGTAG, 0.585.
In turn, GGGCCC registered a binding signal of 0.812.
The same measure, in the same setting: as for GCAGGC, the figure is 0.716; as for GGCAAC, 0.906.
The same measure, in the same setting: the figure for AGCACC is 0.865; for CATGTC it is 0.785.
On the same count and under the same terms, the figure for TCAGCG is 0.749.
As to CTGGAG, the binding signal was found to be 0.669.
Same read-out and setting: the figure for CGGCGG is 0.573; for AGCAGT it is 0.697.
Still for that read-out and setting: the figure for GACTGT is 0.417; for GGAAAG it is 0.851; for AGTCAA it is 0.621.
Same read-out and setting: the figure for CAGCCA is 0.824; for GACAAT it is 0.951.
For the sequence CGGGTG, the binding signal was found to be 0.647.
GAGCCC: the binding signal turned out to be 0.748.
Still for that read-out and setting: as for CGTGGT, the figure is 0.61; as for GTAAAG, 0.899.
As to GTTAGA, the binding signal turned out to be 0.734.
Sequence GGGAAT showed a binding signal of 0.758.
CGAGGA registered a binding signal of 0.643.
The same measure, in the same setting: the figure for CGGCGT is 0.899; for GGAGCA it is 0.447.
On the same count and under the same terms, the figure for CAGCAA is 0.93; for AGCGGG it is 0.468.
In turn, TGAGTC yielded a binding signal of 0.183.
The same measure, in the same setting: as for CAAGGG, the figure is 0.882.
Still for that read-out and setting: as for GGTAGC, the figure is 0.794; as for TGAGCG, 0.639.
On the same count and under the same terms, as for CAAAGG, the figure is 0.831; as for CGAGAC, 0.584.
GGGGAC yielded a binding signal of 0.434.
The same measure, in the same setting: as for ATGTGA, the figure is 0.635; as for GCGTGA, 0.288.
On the same count and under the same terms, the figure for CGGGAC is 0.53.

A further experiment has as its target T3, SPDEF (UniProt O95238).
T3 sequence: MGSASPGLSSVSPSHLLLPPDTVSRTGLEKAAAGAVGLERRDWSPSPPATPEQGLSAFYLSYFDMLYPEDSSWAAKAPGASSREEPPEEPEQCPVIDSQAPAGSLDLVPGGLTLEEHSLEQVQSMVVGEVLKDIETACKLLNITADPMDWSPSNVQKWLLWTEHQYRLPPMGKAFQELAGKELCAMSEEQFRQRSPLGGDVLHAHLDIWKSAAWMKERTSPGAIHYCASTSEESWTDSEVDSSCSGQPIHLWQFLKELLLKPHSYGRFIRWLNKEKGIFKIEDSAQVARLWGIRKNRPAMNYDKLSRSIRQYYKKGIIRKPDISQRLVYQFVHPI
The experiment is described as above. As to conditions: 10 mM Tris-HCl pH 7.5, 50 mM NaCl, 1 mM DTT, 4% glycerol, room temperature, 30 min; GST-TFs on glutathione beads, 16-mer random dsDNA library, 0.1% …; high values mean tight binding; double strand, one strand shown; scale: fold enrichment (6-mer frequency, TF over GST control).
TACCGT: the binding signal was found to be 0.715.
Same read-out and setting: as for TCGGTT, the figure is 0.762; as for CCTGTC, 0.918; as for CAGTAG, 0.608.
GGGCCC came in with a binding signal of 0.829.
Still for that read-out and setting: as for GCAGGC, the figure is 0.62; as for GGCAAC, 0.829.
Sequence AGCACC yielded a binding signal of 0.905.
For the sequence CATGTC, the binding signal was 0.881.
Same read-out and setting: the figure for TCAGCG is 0.69; for CTGGAG it is 0.643.
In turn, CGGCGG showed a binding signal of 0.5.
Still for that read-out and setting: the figure for AGCAGT is 0.677; for GACTGT it is 0.417.
On the same count and under the same terms, the figure for GGAAAG is 0.913.
The same measure, in the same setting: as for AGTCAA, the figure is 0.57; as for CAGCCA, 0.813; as for GACAAT, 0.888.
CGGGTG: the binding signal was determined as 0.762.
Same read-out and setting: as for GAGCCC, the figure is 0.632; as for CGTGGT, 0.554.
Turning to GTAAAG, the binding signal was determined as 0.887.
Still for that read-out and setting: the figure for GTTAGA is 0.771; for GGGAAT it is 0.752.
On the same count and under the same terms, as for CGAGGA, the figure is 0.64; as for CGGCGT, 0.806; as for GGAGCA, 0.474.
On the same count and under the same terms, as for CAGCAA, the figure is 0.873; as for AGCGGG, 0.419.
TGAGTC returned a binding signal of 0.211.
Still for that read-out and setting: as for CAAGGG, the figure is 0.861; as for GGTAGC, 0.875.
Still for that read-out and setting: as for TGAGCG, the figure is 0.649.
Same read-out and setting: as for CAAAGG, the figure is 0.794; as for CGAGAC, 0.56; as for GGGGAC, 0.439.
In turn, ATGTGA returned a binding signal of 0.692.
The same measure, in the same setting: the figure for GCGTGA is 0.274.
In the case of CGGGAC, the binding signal turned out to be 0.61.
